From patent US20210246168A1
No constants are given. Whether binding was seen depends on the method and setting. In cells and extracts the contact can be indirect. Some entries that bind do so weakly or less than the wild type.

The chains behind the UniProt entries cited, without tags or fusion partners. Residues count along the entry.
UniProt P78504, residues 34-1218: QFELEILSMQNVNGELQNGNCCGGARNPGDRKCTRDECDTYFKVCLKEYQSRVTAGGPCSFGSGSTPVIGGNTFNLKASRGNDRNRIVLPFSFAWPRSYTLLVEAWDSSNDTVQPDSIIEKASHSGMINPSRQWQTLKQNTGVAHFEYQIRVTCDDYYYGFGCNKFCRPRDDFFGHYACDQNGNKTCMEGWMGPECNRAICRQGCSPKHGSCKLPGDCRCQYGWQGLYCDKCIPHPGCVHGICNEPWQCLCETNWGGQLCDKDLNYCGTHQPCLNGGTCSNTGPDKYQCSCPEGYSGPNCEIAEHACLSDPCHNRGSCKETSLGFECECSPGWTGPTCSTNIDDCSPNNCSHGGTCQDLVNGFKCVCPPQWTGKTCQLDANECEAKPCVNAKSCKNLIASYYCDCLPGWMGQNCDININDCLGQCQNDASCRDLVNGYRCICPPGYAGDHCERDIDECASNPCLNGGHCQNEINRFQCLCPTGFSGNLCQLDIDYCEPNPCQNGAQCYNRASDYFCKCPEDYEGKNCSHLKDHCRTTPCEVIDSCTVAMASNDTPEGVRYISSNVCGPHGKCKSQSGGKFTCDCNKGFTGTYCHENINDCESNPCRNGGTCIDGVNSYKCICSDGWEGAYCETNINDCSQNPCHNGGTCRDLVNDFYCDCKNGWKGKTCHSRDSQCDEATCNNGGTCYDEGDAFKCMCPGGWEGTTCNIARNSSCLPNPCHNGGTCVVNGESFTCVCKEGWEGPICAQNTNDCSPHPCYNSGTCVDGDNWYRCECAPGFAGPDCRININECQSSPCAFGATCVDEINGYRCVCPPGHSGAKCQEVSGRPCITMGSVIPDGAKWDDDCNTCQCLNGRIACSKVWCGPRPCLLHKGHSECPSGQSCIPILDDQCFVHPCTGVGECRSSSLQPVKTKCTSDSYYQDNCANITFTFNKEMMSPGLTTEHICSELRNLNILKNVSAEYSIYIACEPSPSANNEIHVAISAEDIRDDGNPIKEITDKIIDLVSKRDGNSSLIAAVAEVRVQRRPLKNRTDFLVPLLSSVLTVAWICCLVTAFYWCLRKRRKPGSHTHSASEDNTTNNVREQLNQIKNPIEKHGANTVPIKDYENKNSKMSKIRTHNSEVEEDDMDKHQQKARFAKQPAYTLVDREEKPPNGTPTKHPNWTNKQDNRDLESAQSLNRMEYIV

Target: human Jagged-1, full length (HEK293T-Jagged-1 cells) (human) (UniProt P78504)
Assay: pull-down from HEK293T-Jagged1 lysate with biotin-labeled peptide and streptavidin magnetic beads, anti-Jagged1 blot

binding: binds
B1: biotinylated N1 (SEQ ID NO: 10) peptide (peptide)
peptide: CLDQIGEFQCICMPG
modifications: biotinylated (position of the biotin not stated)
